Results are given in words; binding and its absence hold for the method and conditions named. Binding seen in cells or lysates may run through a third protein. A yes stands for co-enrichment or nearness to the bait. Other partners may have been found. Sequences can lack the tags named with a protein.
Target: T1, His14-Sec61S353C (S. cerevisiae) (UniProt P32915)
T1 sequence: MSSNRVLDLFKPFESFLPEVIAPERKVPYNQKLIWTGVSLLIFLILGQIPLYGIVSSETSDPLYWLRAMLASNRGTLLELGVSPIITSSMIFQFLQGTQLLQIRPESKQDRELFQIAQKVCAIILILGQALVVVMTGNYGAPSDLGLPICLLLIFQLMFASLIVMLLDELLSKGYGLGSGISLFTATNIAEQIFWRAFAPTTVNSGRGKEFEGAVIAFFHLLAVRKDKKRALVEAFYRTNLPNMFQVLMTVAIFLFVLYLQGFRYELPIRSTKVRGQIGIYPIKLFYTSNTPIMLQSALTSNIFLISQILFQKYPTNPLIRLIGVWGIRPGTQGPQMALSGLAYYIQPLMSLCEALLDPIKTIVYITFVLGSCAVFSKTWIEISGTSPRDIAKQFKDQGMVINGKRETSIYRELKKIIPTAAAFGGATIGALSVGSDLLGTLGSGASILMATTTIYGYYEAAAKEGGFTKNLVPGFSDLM
Assay: cross-linking + affinity purification with mass spectrometry; 500 eq microsomes of His14-Sec61 or His14-Sec61S353C crosslinked with SMPH or LC-SPDP (DMSO as control), solubilised and denatured (65°C), purified on HisTrap, fractions 3-10 pooled, LC-MS/MS; interactors at least 3-fold enriched over the uncrosslinked sample; crosslinked peptides sought with xQuest/xProphet

binding: binds
B1: Mpd1 (protein, UniProt Q12404 22-318)
chain: QNFYDSDPHISELTPKSFDKAIHNTNYTSLVEFYAPWCGHCKKLSSTFRKAAKRLDGVVQVAAVNCDLNKNKALCAKYDVNGFPTLMVFRPPKIDLSKPIDNAKKSFSAHANEVYSGARTLAPIVDFSLSRIRSYVKKFVRIDTLGSLLRKSPKLSVVLFSKQDKISPVYKSIALDWLGKFDFYSISNKKLKQLTDMNPTYEKTPEIFKYLQKVIPEQRQSDKSKLVVFDADKDKFWEYEGNSINKNDISKFLRDTFSITPNEGPFSRRSEYIAYLKTGKKPIKKNHSSSGNKHDEL

From publication PMC6347170
